Experimental data published in PMC10460901.
These are yes or no findings as the source states them, for the method shown. Binding seen in cells or lysates may run through a third protein. Some binding calls cover weakened binding; strength is not graded here. For some assays here: Tags and fused reporters may be left off the sequences shown. Blank lines part the entries; values can stand above or below the molecule they belong to.

Protein sequences, listed by entry. Tags and fused reporters are not part of them. Lines headed by an entry give the natural chain unless they say otherwise; changes in a name come on top.
UniProt P48436: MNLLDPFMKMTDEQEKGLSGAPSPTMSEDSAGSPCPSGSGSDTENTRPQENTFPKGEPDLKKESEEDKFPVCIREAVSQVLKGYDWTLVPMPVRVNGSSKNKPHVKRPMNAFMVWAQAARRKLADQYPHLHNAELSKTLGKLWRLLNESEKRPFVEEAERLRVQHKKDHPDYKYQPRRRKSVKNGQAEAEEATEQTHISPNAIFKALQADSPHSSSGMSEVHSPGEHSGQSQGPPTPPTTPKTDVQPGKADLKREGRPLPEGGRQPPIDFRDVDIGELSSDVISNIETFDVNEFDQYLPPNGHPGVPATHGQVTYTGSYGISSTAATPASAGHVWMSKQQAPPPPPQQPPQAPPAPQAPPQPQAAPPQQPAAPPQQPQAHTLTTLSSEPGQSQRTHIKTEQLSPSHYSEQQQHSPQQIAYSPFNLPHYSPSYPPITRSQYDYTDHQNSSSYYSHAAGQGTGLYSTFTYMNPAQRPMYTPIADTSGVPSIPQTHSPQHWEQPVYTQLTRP
UniProt Q96KQ7: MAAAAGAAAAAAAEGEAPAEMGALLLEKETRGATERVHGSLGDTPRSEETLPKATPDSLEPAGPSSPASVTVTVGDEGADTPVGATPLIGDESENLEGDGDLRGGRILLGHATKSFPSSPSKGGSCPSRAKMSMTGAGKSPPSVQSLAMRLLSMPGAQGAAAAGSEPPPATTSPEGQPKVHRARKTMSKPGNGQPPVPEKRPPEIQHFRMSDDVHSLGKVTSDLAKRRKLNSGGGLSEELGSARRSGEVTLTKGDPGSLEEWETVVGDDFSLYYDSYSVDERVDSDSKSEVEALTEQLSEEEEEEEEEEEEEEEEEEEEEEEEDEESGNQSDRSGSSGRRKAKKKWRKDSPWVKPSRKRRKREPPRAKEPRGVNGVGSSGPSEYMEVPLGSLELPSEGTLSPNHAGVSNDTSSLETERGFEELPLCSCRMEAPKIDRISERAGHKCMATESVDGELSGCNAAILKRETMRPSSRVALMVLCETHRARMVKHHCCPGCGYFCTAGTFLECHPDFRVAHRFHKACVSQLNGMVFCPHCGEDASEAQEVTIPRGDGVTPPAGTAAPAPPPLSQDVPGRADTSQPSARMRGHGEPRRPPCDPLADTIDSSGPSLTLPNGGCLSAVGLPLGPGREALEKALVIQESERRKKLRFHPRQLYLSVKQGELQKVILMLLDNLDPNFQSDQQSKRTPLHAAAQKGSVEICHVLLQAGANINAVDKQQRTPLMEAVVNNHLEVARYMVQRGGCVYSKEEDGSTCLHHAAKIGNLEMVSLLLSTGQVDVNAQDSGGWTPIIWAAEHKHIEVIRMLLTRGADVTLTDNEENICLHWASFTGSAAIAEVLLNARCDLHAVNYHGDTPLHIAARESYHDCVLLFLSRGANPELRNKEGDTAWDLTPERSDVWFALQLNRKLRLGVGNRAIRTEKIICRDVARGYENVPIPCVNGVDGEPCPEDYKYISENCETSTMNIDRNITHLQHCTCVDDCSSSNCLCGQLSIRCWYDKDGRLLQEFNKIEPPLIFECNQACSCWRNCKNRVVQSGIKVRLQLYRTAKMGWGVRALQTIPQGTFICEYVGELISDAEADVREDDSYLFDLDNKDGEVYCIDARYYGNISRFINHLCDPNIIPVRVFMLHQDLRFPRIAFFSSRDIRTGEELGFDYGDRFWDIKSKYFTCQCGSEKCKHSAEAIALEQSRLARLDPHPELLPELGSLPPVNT

Experiments:
[1] = target: MYC‐tagged SOX9 (MYC‐SOX9), in HEK293T cells (UniProt P48436); assay: co-IP; protein extracts of HeLa or HEK293T cells transfected with MYC-SOX9; MYC antibody for immunoprecipitation, immunoblotting
[2] = target: SOX9 (sex‐determining region Y‐type high‐mobility group box protein 9) (not stated (endogenous in DPSCs)) (UniProt P48436); assay: co-IP; DPSC protein extracts treated with RNase A (10 µg mL^-1); SOX9 antibody for immunoprecipitation, immunoblotting for KDM3A and G9A
[3] = target: MYC‐tagged SOX9 (MYC‐SOX9), in HeLa cells (UniProt P48436); assay: co-IP; protein extracts of HeLa or HEK293T cells transfected with MYC-SOX9; MYC antibody for immunoprecipitation, immunoblotting
[4] = target: bacterially purified MYC‐SOX9 (UniProt P48436); assay: pull-down; purified MYC-SOX9 or MYC peptide loaded onto MYC-magnetic beads, then incubated with in vitro transcribed/translated FLAG-KDM3A or FLAG-G9A; western blotting; only the target purified

binding [1]: binds
Molecule: G9A in HEK293T cells (from UniProt Q96KQ7 1-1210) (enzyme)

binding [2]: binds
B1: Lysine demethylase 3A (KDM3A) (enzyme, UniProt Q9Y4C1 1-1321)
chain: MVLTLGESWPVLVGRRFLSLSAADGSDGSHDSWDVERVAEWPWLSGTIRAVSHTDVTKKDLKVCVEFDGESWRKRRWIEVYSLLRRAFLVEHNLVLAERKSPEISERIVQWPAITYKPLLDKAGLGSITSVRFLGDQQRVFLSKDLLKPIQDVNSLRLSLTDNQIVSKEFQALIVKHLDESHLLKGDKNLVGSEVKIYSLDPSTQWFSATVINGNPASKTLQVNCEEIPALKIVDPSLIHVEVVHDNLVTCGNSARIGAVKRKSSENNGTLVSKQAKSCSEASPSMCPVQSVPTTVFKEILLGCTAATPPSKDPRQQSTPQAANSPPNLGAKIPQGCHKQSLPEEISSCLNTKSEALRTKPDVCKAGLLSKSSQIGTGDLKILTEPKGSCTQPKTNTDQENRLESVPQALTGLPKECLPTKASSKAELEIANPPELQKHLEHAPSPSDVSNAPEVKAGVNSDSPNNCSGKKVEPSALACRSQNLKESSVKVDNESCCSRSNNKIQNAPSRKSVLTDPAKLKKLQQSGEAFVQDDSCVNIVAQLPKCRECRLDSLRKDKEQQKDSPVFCRFFHFRRLQFNKHGVLRVEGFLTPNKYDNEAIGLWLPLTKNVVGIDLDTAKYILANIGDHFCQMVISEKEAMSTIEPHRQVAWKRAVKGVREMCDVCDTTIFNLHWVCPRCGFGVCVDCYRMKRKNCQQGAAYKTFSWLKCVKSQIHEPENLMPTQIIPGKALYDVGDIVHSVRAKWGIKANCPCSNRQFKLFSKPASKEDLKQTSLAGEKPTLGAVLQQNPSVLEPAAVGGEAASKPAGSMKPACPASTSPLNWLADLTSGNVNKENKEKQPTMPILKNEIKCLPPLPPLSKSSTVLHTFNSTILTPVSNNNSGFLRNLLNSSTGKTENGLKNTPKILDDIFASLVQNKTTSDLSKRPQGLTIKPSILGFDTPHYWLCDNRLLCLQDPNNKSNWNVFRECWKQGQPVMVSGVHHKLNSELWKPESFRKEFGEQEVDLVNCRTNEIITGATVGDFWDGFEDVPNRLKNEKEPMVLKLKDWPPGEDFRDMMPSRFDDLMANIPLPEYTRRDGKLNLASRLPNYFVRPDLGPKMYNAYGLITPEDRKYGTTNLHLDVSDAANVMVYVGIPKGQCEQEEEVLKTIQDGDSDELTIKRFIEGKEKPGALWHIYAAKDTEKIREFLKKVSEEQGQENPADHDPIHDQSWYLDRSLRKRLHQEYGVQGWAIVQFLGDVVFIPAGAPHQVHNLYSCIKVAEDFVSPEHVKHCFWLTQEFRYLSQTHTNHEDKLQVKNVIYHAVKDAVAMLKASESSFGKP

binding [3]: binds
B2: KDM3A in HeLa cells (enzyme, UniProt Q9Y4C1 1-1321)
chain: MVLTLGESWPVLVGRRFLSLSAADGSDGSHDSWDVERVAEWPWLSGTIRAVSHTDVTKKDLKVCVEFDGESWRKRRWIEVYSLLRRAFLVEHNLVLAERKSPEISERIVQWPAITYKPLLDKAGLGSITSVRFLGDQQRVFLSKDLLKPIQDVNSLRLSLTDNQIVSKEFQALIVKHLDESHLLKGDKNLVGSEVKIYSLDPSTQWFSATVINGNPASKTLQVNCEEIPALKIVDPSLIHVEVVHDNLVTCGNSARIGAVKRKSSENNGTLVSKQAKSCSEASPSMCPVQSVPTTVFKEILLGCTAATPPSKDPRQQSTPQAANSPPNLGAKIPQGCHKQSLPEEISSCLNTKSEALRTKPDVCKAGLLSKSSQIGTGDLKILTEPKGSCTQPKTNTDQENRLESVPQALTGLPKECLPTKASSKAELEIANPPELQKHLEHAPSPSDVSNAPEVKAGVNSDSPNNCSGKKVEPSALACRSQNLKESSVKVDNESCCSRSNNKIQNAPSRKSVLTDPAKLKKLQQSGEAFVQDDSCVNIVAQLPKCRECRLDSLRKDKEQQKDSPVFCRFFHFRRLQFNKHGVLRVEGFLTPNKYDNEAIGLWLPLTKNVVGIDLDTAKYILANIGDHFCQMVISEKEAMSTIEPHRQVAWKRAVKGVREMCDVCDTTIFNLHWVCPRCGFGVCVDCYRMKRKNCQQGAAYKTFSWLKCVKSQIHEPENLMPTQIIPGKALYDVGDIVHSVRAKWGIKANCPCSNRQFKLFSKPASKEDLKQTSLAGEKPTLGAVLQQNPSVLEPAAVGGEAASKPAGSMKPACPASTSPLNWLADLTSGNVNKENKEKQPTMPILKNEIKCLPPLPPLSKSSTVLHTFNSTILTPVSNNNSGFLRNLLNSSTGKTENGLKNTPKILDDIFASLVQNKTTSDLSKRPQGLTIKPSILGFDTPHYWLCDNRLLCLQDPNNKSNWNVFRECWKQGQPVMVSGVHHKLNSELWKPESFRKEFGEQEVDLVNCRTNEIITGATVGDFWDGFEDVPNRLKNEKEPMVLKLKDWPPGEDFRDMMPSRFDDLMANIPLPEYTRRDGKLNLASRLPNYFVRPDLGPKMYNAYGLITPEDRKYGTTNLHLDVSDAANVMVYVGIPKGQCEQEEEVLKTIQDGDSDELTIKRFIEGKEKPGALWHIYAAKDTEKIREFLKKVSEEQGQENPADHDPIHDQSWYLDRSLRKRLHQEYGVQGWAIVQFLGDVVFIPAGAPHQVHNLYSCIKVAEDFVSPEHVKHCFWLTQEFRYLSQTHTNHEDKLQVKNVIYHAVKDAVAMLKASESSFGKP

binding [1]: binds
B3: KDM3A in HEK293T cells (enzyme, UniProt Q9Y4C1 1-1321)
chain: MVLTLGESWPVLVGRRFLSLSAADGSDGSHDSWDVERVAEWPWLSGTIRAVSHTDVTKKDLKVCVEFDGESWRKRRWIEVYSLLRRAFLVEHNLVLAERKSPEISERIVQWPAITYKPLLDKAGLGSITSVRFLGDQQRVFLSKDLLKPIQDVNSLRLSLTDNQIVSKEFQALIVKHLDESHLLKGDKNLVGSEVKIYSLDPSTQWFSATVINGNPASKTLQVNCEEIPALKIVDPSLIHVEVVHDNLVTCGNSARIGAVKRKSSENNGTLVSKQAKSCSEASPSMCPVQSVPTTVFKEILLGCTAATPPSKDPRQQSTPQAANSPPNLGAKIPQGCHKQSLPEEISSCLNTKSEALRTKPDVCKAGLLSKSSQIGTGDLKILTEPKGSCTQPKTNTDQENRLESVPQALTGLPKECLPTKASSKAELEIANPPELQKHLEHAPSPSDVSNAPEVKAGVNSDSPNNCSGKKVEPSALACRSQNLKESSVKVDNESCCSRSNNKIQNAPSRKSVLTDPAKLKKLQQSGEAFVQDDSCVNIVAQLPKCRECRLDSLRKDKEQQKDSPVFCRFFHFRRLQFNKHGVLRVEGFLTPNKYDNEAIGLWLPLTKNVVGIDLDTAKYILANIGDHFCQMVISEKEAMSTIEPHRQVAWKRAVKGVREMCDVCDTTIFNLHWVCPRCGFGVCVDCYRMKRKNCQQGAAYKTFSWLKCVKSQIHEPENLMPTQIIPGKALYDVGDIVHSVRAKWGIKANCPCSNRQFKLFSKPASKEDLKQTSLAGEKPTLGAVLQQNPSVLEPAAVGGEAASKPAGSMKPACPASTSPLNWLADLTSGNVNKENKEKQPTMPILKNEIKCLPPLPPLSKSSTVLHTFNSTILTPVSNNNSGFLRNLLNSSTGKTENGLKNTPKILDDIFASLVQNKTTSDLSKRPQGLTIKPSILGFDTPHYWLCDNRLLCLQDPNNKSNWNVFRECWKQGQPVMVSGVHHKLNSELWKPESFRKEFGEQEVDLVNCRTNEIITGATVGDFWDGFEDVPNRLKNEKEPMVLKLKDWPPGEDFRDMMPSRFDDLMANIPLPEYTRRDGKLNLASRLPNYFVRPDLGPKMYNAYGLITPEDRKYGTTNLHLDVSDAANVMVYVGIPKGQCEQEEEVLKTIQDGDSDELTIKRFIEGKEKPGALWHIYAAKDTEKIREFLKKVSEEQGQENPADHDPIHDQSWYLDRSLRKRLHQEYGVQGWAIVQFLGDVVFIPAGAPHQVHNLYSCIKVAEDFVSPEHVKHCFWLTQEFRYLSQTHTNHEDKLQVKNVIYHAVKDAVAMLKASESSFGKP

binding [4]: binds
B4: FLAG‐KDM3A (enzyme, UniProt Q9Y4C1 1-1321)
chain: MVLTLGESWPVLVGRRFLSLSAADGSDGSHDSWDVERVAEWPWLSGTIRAVSHTDVTKKDLKVCVEFDGESWRKRRWIEVYSLLRRAFLVEHNLVLAERKSPEISERIVQWPAITYKPLLDKAGLGSITSVRFLGDQQRVFLSKDLLKPIQDVNSLRLSLTDNQIVSKEFQALIVKHLDESHLLKGDKNLVGSEVKIYSLDPSTQWFSATVINGNPASKTLQVNCEEIPALKIVDPSLIHVEVVHDNLVTCGNSARIGAVKRKSSENNGTLVSKQAKSCSEASPSMCPVQSVPTTVFKEILLGCTAATPPSKDPRQQSTPQAANSPPNLGAKIPQGCHKQSLPEEISSCLNTKSEALRTKPDVCKAGLLSKSSQIGTGDLKILTEPKGSCTQPKTNTDQENRLESVPQALTGLPKECLPTKASSKAELEIANPPELQKHLEHAPSPSDVSNAPEVKAGVNSDSPNNCSGKKVEPSALACRSQNLKESSVKVDNESCCSRSNNKIQNAPSRKSVLTDPAKLKKLQQSGEAFVQDDSCVNIVAQLPKCRECRLDSLRKDKEQQKDSPVFCRFFHFRRLQFNKHGVLRVEGFLTPNKYDNEAIGLWLPLTKNVVGIDLDTAKYILANIGDHFCQMVISEKEAMSTIEPHRQVAWKRAVKGVREMCDVCDTTIFNLHWVCPRCGFGVCVDCYRMKRKNCQQGAAYKTFSWLKCVKSQIHEPENLMPTQIIPGKALYDVGDIVHSVRAKWGIKANCPCSNRQFKLFSKPASKEDLKQTSLAGEKPTLGAVLQQNPSVLEPAAVGGEAASKPAGSMKPACPASTSPLNWLADLTSGNVNKENKEKQPTMPILKNEIKCLPPLPPLSKSSTVLHTFNSTILTPVSNNNSGFLRNLLNSSTGKTENGLKNTPKILDDIFASLVQNKTTSDLSKRPQGLTIKPSILGFDTPHYWLCDNRLLCLQDPNNKSNWNVFRECWKQGQPVMVSGVHHKLNSELWKPESFRKEFGEQEVDLVNCRTNEIITGATVGDFWDGFEDVPNRLKNEKEPMVLKLKDWPPGEDFRDMMPSRFDDLMANIPLPEYTRRDGKLNLASRLPNYFVRPDLGPKMYNAYGLITPEDRKYGTTNLHLDVSDAANVMVYVGIPKGQCEQEEEVLKTIQDGDSDELTIKRFIEGKEKPGALWHIYAAKDTEKIREFLKKVSEEQGQENPADHDPIHDQSWYLDRSLRKRLHQEYGVQGWAIVQFLGDVVFIPAGAPHQVHNLYSCIKVAEDFVSPEHVKHCFWLTQEFRYLSQTHTNHEDKLQVKNVIYHAVKDAVAMLKASESSFGKP
